From patent US20120207673A1
These are yes or no findings as the source states them, for the method shown. Some entries that bind do so weakly or less than the wild type.

Target: hen egg lysozyme (hen) (UniProt P00698)
Experiment: SPR (Biacore 2000), purified VH

binding: binds
B1: VHHEL_G08 (anti-HEL VH), purified soluble domain (protein)
VH: EVQLLESGGGLVQPGGSLRLSCAASGFRISDEDMGWVRQAPGKGLEWVSYIDNNGYSTYYADSVKGRFTISRDNSKNTLYLQMNSLRAEDTAVYYCAKKQYGYQNGGFDYWGQGTLVTVSS
